# Primary screen of a compound library

The chains behind the UniProt entries cited, without tags or fusion partners. Residues count along the entry.
UniProt Q4DA54, 1-478: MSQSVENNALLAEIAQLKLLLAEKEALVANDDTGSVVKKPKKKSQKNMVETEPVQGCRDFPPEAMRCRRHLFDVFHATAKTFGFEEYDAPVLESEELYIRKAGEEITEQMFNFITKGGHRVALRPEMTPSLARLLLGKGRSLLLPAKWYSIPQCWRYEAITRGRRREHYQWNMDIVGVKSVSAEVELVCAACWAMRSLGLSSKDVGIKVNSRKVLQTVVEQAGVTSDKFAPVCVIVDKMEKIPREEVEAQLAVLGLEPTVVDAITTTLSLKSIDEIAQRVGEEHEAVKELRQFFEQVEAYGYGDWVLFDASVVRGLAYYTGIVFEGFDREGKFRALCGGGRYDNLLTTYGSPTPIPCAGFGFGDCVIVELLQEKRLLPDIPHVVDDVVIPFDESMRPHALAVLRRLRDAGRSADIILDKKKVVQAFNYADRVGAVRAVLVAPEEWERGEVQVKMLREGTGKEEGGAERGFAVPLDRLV
UniProt P9WPC5, whole entry: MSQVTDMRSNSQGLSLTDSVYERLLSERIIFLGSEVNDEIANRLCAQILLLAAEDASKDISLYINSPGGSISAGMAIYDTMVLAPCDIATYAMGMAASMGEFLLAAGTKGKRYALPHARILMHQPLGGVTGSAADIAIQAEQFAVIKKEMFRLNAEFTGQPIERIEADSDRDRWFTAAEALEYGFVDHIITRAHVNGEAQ
UniProt P9WPC3, whole entry partner: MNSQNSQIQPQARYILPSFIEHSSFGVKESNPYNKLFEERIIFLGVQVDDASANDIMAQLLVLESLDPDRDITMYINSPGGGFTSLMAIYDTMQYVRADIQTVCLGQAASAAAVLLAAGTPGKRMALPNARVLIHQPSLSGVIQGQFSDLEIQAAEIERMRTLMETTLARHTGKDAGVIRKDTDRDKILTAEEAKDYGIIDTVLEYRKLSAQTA
UniProt Q8IDJ8, 1-583: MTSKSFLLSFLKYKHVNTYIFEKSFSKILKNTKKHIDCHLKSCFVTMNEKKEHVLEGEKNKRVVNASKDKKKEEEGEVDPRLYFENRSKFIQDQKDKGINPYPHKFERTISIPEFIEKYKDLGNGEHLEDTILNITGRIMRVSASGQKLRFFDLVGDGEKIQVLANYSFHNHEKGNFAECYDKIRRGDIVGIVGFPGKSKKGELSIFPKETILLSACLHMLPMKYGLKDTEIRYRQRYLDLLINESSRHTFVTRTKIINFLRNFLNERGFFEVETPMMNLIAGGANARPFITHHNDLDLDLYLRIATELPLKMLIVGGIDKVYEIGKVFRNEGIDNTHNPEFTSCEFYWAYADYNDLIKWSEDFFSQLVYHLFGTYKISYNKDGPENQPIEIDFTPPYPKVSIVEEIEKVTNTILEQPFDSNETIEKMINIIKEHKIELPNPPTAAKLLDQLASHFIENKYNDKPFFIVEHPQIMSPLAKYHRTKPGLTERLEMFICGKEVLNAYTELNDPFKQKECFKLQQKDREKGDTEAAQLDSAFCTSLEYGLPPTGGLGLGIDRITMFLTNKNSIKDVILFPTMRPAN

Results are given as percent effect.
How 0% and 100% were set is not recorded. Most values in the screen are low, and negative values occur.
This is an unselected part of the compounds tested.

Leishmania in macrophages: 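Cell assay of Leishmania donovani living inside macrophages; the read-out is not stated. Compounds at 30 µM. Higher reads as stronger inhibition (inferred: compounds with an IC50 in retests scored well above the rest). About 69,000 compounds were tested under these conditions; 1.5% (about 1,000) showed 50% or more at least once.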
TcHisRS: 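Histidine-tRNA ligase, Trypanosoma cruzi CL Brener (UniProt Q4DA54). Enzyme assay of histidyl-tRNA synthetase; the read-out is not stated. Tested at 30 µM. The record gives no direction; compounds that gave an IC50 in retests scored well above the rest, so higher reads as stronger inhibition. Of about 69,000 compounds tested this way, about 31 (0.045%) reached 50% or more in at least one test.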
ClpP1P2: 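ClpP1P2, Mycobacterium tuberculosis (UniProt P9WPC5 and UniProt P9WPC3). Protease assay of ClpP1P2, read by the AMC dye that it sets free. Concentration: 50 µM. Direction is inferred from only a few compounds that gave an IC50; most scored high, so higher reads as stronger inhibition. Most other retested compounds had strongly negative values. Of about 69,000 compounds tested this way, about 10 (0.015%) reached 50% or more in at least one test.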
Toxoplasma: 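Assay of Toxoplasma gondii numbers, read through their beta-galactosidase reporter with a colour substrate. Compounds at 10 µM. Higher reads as fewer parasites (inferred from which compounds were picked for retests). About 67,000 compounds were tested under these conditions; 0.38% (about 260) showed 50% or more at least once.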
PfKRS1: 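Enzyme assay of the cytosolic lysyl-tRNA synthetase in 384-well plates, read by luminescence. Target: Lysine-tRNA ligase, Plasmodium falciparum 3D7 (UniProt Q8IDJ8). Concentration: 30 µM. Direction is inferred from only a few compounds that gave an IC50; most scored high, so higher reads as stronger inhibition. Of about 69,000 compounds tested this way, about 49 (0.071%) reached 50% or more in at least one test.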

O=C(NC1CC1)N1CCC2(CC1)C(=O)NCCN2Cc1ccccc1 gave TcHisRS: 0.9709%; ClpP1P2: -4.579%; PfKRS1: 2.983%.
O=C(O)C(F)(F)F.[H][C@@]12CCN(Cc3cccs3)[C@]1([H])CC[C@@H](C(=O)N1CCCCO1)O2 gave Leishmania in macrophages: -9.892%; Toxoplasma: -7.268%.
Cc1ccnc(CC(C)N(C)Cc2ccc3c(c2)CCO3)c1 (stereo unspecified) gave Leishmania in macrophages: 11.75%; TcHisRS: 0%; ClpP1P2: 1.139%; Toxoplasma: -22.79%; PfKRS1: 3.791%.
CCc1cc(CNC(=O)NCC(c2ccco2)N2CCCC2)[nH]n1 (stereo unspecified) gave Leishmania in macrophages: 7.636%; TcHisRS: 4.651%; ClpP1P2: -14.59%; Toxoplasma: -3.188%; PfKRS1: 2.547%.
c1ccc(CNCC2Cn3nnc(-c4ccncc4)c3CO2)nc1 (stereo unspecified) gave TcHisRS: 4.301%; ClpP1P2: -2.043%; PfKRS1: 5.611%.
O=C(O)C(F)(F)F.[H][C@@]12CCCO[C@]1([H])[C@@H](OC)CN2CC1CCOCC1 gave Leishmania in macrophages: 22.33%; Toxoplasma: -6.968%.
[H][C@]12CC[C@]([H])(CN(S(=O)(=O)N(C)C)C1)N(C(=O)c1sc(CC)nc1C)C2 gave Leishmania in macrophages: 4.331%; Toxoplasma: -0.2203%.
CC(=O)c1cccc(S(=O)(=O)NCc2cccnc2N(C)C)c1 gave Leishmania in macrophages: 22.47%; TcHisRS: 6.857%; ClpP1P2: -7.368%; Toxoplasma: 13.21%; PfKRS1: 3.775%.
CCN1CCN(C(=O)C(C)SC)CC1 (stereo unspecified) gave Leishmania in macrophages: 2.342%; TcHisRS: 0%; ClpP1P2: -1.33%; Toxoplasma: -10.56%; PfKRS1: 1.397%.
COCC(=O)N1C[C@@H](c2cc(O)nc(C)n2)[C@H](c2ccccc2F)C1 gave Leishmania in macrophages: -9.017%; TcHisRS: 0%; ClpP1P2: -9.116%; Toxoplasma: 16.02%; PfKRS1: 2.703%.
c1ccc(NC[C@@H]2CCC[C@@H]3CN(Cc4cccnc4)C[C@@H]32)nc1 gave TcHisRS: 6%; ClpP1P2: 11.21%; PfKRS1: 2.767%.
CCc1nc(CN2CCCN(C(=O)CCc3ccco3)CC2)cs1 gave Leishmania in macrophages: 11.72%; TcHisRS: 15.41%; ClpP1P2: -3.176%; Toxoplasma: 7.03%; PfKRS1: 2.565%.
CCCc1noc(CS(=O)(=O)CC(=O)NC(C)CCC)n1 (stereo unspecified) gave Leishmania in macrophages: 27.87%; TcHisRS: 0.6494%; ClpP1P2: 13.21%; Toxoplasma: -42.33%; PfKRS1: 1.524%.
CS(=O)(=O)N1CCO[C@@H]2CN(C(=O)Cc3cccs3)CC[C@@H]2C1 gave TcHisRS: -20.11%; ClpP1P2: -3.205%; PfKRS1: 4.563%.
CC(=O)NCCCC(=O)N1CCC(Sc2cccc(C)c2)CC1 gave Leishmania in macrophages: 42.91%; TcHisRS: 2.97%; ClpP1P2: 9.611%; PfKRS1: 7.585%.
CC(C)CCn1[nH]c(CNc2ccc(F)cc2)nc1=O gave Leishmania in macrophages: 4.377%; TcHisRS: 0%; ClpP1P2: -12.13%; Toxoplasma: -11.25%; PfKRS1: 5.335%.
Cc1ccc(C)c(CN2CCCn3nc(CNS(C)(=O)=O)cc3C2)c1 gave Leishmania in macrophages: 6.617%; TcHisRS: 4.082%; ClpP1P2: -9.598%; Toxoplasma: -15.82%; PfKRS1: 1.784%.
CCc1nnc2n1CCN(Cc1csc(-c3ccc(C)o3)n1)C2 gave Leishmania in macrophages: 23.79%; TcHisRS: 9.16%; ClpP1P2: 16.69%; Toxoplasma: -16.62%; PfKRS1: 6.095%.
Cc1cn(-c2ccccc2)nc1NS(=O)(=O)c1cc(C(=O)O)sc1C gave Leishmania in macrophages: 37.53%; TcHisRS: 4.878%; ClpP1P2: 0.05224%; Toxoplasma: -19.07%; PfKRS1: 12.13%.
O=C(c1ccc2c(c1)OCCCO2)N1CCCC(n2cccn2)C1 (stereo unspecified) gave Leishmania in macrophages: 3.777%; TcHisRS: 1.453%; ClpP1P2: -15.6%; Toxoplasma: 55.61%; PfKRS1: 1.376%.
[H][C@@]12CS(=O)(=O)C[C@]1([H])N(C(=O)c1[nH]c3ccccc3c1Cl)CCN2CC gave Leishmania in macrophages: 10.26%; Toxoplasma: 2.757%.
Cc1cc(NCc2cccc(C#N)c2)ccc1Br gave Leishmania in macrophages: 8.451%; TcHisRS: 3.093%; ClpP1P2: 15.56%; Toxoplasma: -2.117%; PfKRS1: 1.015%.
O=c1cc(C2CCNCC2)nc(CCCc2ccccc2)[nH]1 gave Leishmania in macrophages: 27.29%; TcHisRS: 2.4%; ClpP1P2: 3.267%; Toxoplasma: 0.0575%; PfKRS1: 0.836%.
NC(=O)c1csc(C(=O)N2CCCC(n3cccn3)C2)c1 (stereo unspecified) gave Leishmania in macrophages: 3.867%; TcHisRS: 8.262%; ClpP1P2: -1.775%; Toxoplasma: 4.374%; PfKRS1: -2.425%.
COc1ccc(N2CCN(CC[C@H](O)c3ccccc3)CC2=O)cc1 gave Leishmania in macrophages: 31.24%; TcHisRS: 7.853%; ClpP1P2: -1.587%; Toxoplasma: -0.2882%; PfKRS1: 0.4027%.
[H][C@]12C[C@H](C(=O)NC)N(C)[C@@]1([H])CN(C(=O)c1cncc(C)c1)C2 gave Leishmania in macrophages: 48.83%; Toxoplasma: 14.09%.

3 of the entries, repeated:

{"smiles": "[H][C@]12CC[C@]([H])(CN(S(=O)(=O)N(C)C)C1)N(C(=O)c1sc(CC)nc1C)C2", "Leishmania in macrophages": 4.331, "Toxoplasma": -0.2203}
{"smiles": "Cc1cc(NCc2cccc(C#N)c2)ccc1Br", "Leishmania in macrophages": 8.451, "TcHisRS": 3.093, "ClpP1P2": 15.56, "Toxoplasma": -2.117, "PfKRS1": 1.015}
{"smiles": "O=C(NC1CC1)N1CCC2(CC1)C(=O)NCCN2Cc1ccccc1", "TcHisRS": 0.9709, "ClpP1P2": -4.579, "PfKRS1": 2.983}

Measurements from “University of Dundee, Small-Polar-MMV Screening Library” (2021), ChEMBL document CHEMBL3988442.